Results on 1 compound are retold here after patent US20130029334A1, “mRNA As Biomarkers For Liver Injury or Other Liver Perturbations” (priority 2010, published 2013).

The subject of the series is rats. Kind of series: Sucrose density gradient fractionation of plasma 14,000xg pellet with qPCR and electron microscopy. In kind it is in vivo, rat. The conditions noted are these: certain density fractions, most notably 1.07 and 1.25 g/mL; DGAL-treated rats.

In the case of `N[C@H]1C(O)O[C@H](CO)[C@H](O)[C@@H]1O` (stereo partly drawn) [DGAL, D-(+)-galactosamine], the mean microparticle diameter entry is reported as “increase in mean microparticle diameter”.
